In paper doi:10.1101/495762 (bioRxiv, 2018):
No constants are given. Whether binding was seen depends on the method and setting. Binding seen in cells or lysates may run through a third protein. Some results given as binding are weak or reduced against the parent protein; the word gives no strength. Tags and fused reporters may be left off the sequences shown.

Tests used:
[1] = molecular target: T1, Smc3(E570C, S1127R)-HaloTag (S. cerevisiae) (UniProt P47037); test: cross-linking
T1 sequence: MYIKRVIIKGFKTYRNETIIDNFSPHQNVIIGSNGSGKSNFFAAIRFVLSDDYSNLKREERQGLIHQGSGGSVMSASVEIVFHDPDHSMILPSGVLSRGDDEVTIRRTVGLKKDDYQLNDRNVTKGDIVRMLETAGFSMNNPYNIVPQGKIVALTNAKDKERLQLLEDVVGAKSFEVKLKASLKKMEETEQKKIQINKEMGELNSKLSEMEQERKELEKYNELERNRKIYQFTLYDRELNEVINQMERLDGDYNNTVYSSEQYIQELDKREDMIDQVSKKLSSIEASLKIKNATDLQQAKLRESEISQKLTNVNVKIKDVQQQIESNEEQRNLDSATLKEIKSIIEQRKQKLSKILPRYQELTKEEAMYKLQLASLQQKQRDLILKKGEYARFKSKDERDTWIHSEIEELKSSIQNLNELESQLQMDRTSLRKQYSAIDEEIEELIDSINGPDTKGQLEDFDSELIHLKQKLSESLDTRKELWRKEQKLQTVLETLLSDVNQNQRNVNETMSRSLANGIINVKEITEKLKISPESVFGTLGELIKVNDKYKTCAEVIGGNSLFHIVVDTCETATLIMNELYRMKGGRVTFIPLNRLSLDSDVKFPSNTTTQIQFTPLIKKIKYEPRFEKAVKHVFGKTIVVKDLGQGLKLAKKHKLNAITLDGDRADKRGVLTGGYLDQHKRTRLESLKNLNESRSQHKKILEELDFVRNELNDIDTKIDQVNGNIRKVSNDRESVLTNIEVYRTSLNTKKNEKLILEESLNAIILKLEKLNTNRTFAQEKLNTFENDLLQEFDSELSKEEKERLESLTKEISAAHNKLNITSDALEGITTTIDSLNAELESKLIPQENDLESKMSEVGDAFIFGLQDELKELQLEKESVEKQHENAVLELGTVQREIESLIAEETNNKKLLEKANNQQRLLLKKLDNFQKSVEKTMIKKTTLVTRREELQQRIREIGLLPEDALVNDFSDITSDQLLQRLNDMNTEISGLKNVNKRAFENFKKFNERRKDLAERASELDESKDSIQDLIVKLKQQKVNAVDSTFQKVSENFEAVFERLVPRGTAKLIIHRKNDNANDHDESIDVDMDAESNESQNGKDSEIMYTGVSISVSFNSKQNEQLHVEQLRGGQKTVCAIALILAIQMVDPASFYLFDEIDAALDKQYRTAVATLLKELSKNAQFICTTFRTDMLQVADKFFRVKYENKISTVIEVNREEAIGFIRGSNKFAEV

[2] = molecular target: T2, Smc3(E570C, E1155Q)-HaloTag (S. cerevisiae) (UniProt P47037); test: cross-linking
T2 sequence: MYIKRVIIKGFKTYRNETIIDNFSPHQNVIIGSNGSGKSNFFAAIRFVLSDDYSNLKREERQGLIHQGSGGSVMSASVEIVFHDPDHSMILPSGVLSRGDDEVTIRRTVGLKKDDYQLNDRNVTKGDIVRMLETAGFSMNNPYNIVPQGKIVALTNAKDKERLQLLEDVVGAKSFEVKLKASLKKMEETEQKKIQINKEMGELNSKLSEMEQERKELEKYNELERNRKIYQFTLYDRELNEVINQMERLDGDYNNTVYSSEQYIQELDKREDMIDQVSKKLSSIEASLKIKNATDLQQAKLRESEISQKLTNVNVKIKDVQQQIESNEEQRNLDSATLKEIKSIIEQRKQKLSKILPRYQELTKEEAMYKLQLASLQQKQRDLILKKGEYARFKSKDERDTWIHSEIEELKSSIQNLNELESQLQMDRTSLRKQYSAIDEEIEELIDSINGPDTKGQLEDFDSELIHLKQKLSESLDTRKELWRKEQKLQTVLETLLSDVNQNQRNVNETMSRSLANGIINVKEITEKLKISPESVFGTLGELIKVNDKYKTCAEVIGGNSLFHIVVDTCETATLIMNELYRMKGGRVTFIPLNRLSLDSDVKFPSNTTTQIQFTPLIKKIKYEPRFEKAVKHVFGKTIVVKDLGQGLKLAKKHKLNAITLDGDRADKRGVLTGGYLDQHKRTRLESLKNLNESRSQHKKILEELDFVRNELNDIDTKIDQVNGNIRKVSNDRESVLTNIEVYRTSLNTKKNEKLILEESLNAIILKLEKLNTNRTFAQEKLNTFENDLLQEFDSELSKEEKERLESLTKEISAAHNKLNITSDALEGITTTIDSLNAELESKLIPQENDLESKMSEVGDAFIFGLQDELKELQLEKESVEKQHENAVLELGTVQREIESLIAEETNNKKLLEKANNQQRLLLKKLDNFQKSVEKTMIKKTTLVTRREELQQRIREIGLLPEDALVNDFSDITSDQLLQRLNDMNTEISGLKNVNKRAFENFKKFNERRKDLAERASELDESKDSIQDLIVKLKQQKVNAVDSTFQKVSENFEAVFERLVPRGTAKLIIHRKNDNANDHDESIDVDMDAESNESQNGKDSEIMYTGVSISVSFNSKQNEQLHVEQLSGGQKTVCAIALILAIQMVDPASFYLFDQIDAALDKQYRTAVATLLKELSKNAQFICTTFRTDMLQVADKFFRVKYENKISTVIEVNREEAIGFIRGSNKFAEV

binding [1]: binds
binding [2]: binds
B1: Smc1(K639C) (protein, UniProt P32908 1-1225)
chain: MGRLVGLELSNFKSYRGVTKVGFGESNFTSIIGPNGSGKSNMMDAISFVLGVRSNHLRSNILKDLIYRGVLNDENSDDYDNEGAASSNPQSAYVKAFYQKGNKLVELMRIISRNGDTSYKIDGKTVSYKDYSIFLENENILIKAKNFLVFQGDVEQIAAQSPVELSRMFEEVSGSIQYKKEYEELKEKIEKLSKSATESIKNRRRIHGELKTYKEGINKNEEYRKQLDKKNELQKFQALWQLYHLEQQKEELTDKLSALNSEISSLKGKINNEMKSLQRSKSSFVKESAVISKQKSKLDYIFKDKEKLVSDLRLIKVPQQAAGKRISHIEKRIESLQKDLQRQKTYVERFETQLKVVTRSKEAFEEEIKQSARNYDKFKLNENDLKTYNCLHEKYLTEGGSILEEKIAVLNNDKREIQEELERFNKRADISKRRITEELSITGEKLDTQLNDLRVSLNEKNALHTERLHELKKLQSDIESANNQEYDLNFKLRETLVKIDDLSANQRETMKERKLRENIAMLKRFFPGVKGLVHDLCHPKKEKYGLAVSTILGKNFDSVIVENLTVAQECIAFLKKQRAGTASFIPLDTIETELPTLSLPDSQDYILSINAIDYEPEYEKAMQYVCGDSIICNTLNIACDLKWKKGIRGKLVTIEGALIHKAGLMTGGISGDANNRWDKEEYQSLMSLKDKLLIQIDELSNGQRSNSIRAREVENSVSLLNSDIANLRTQVTQQKRSLDENRLEIKYHNDLIEKEIQPKITELKKKLDDLENTKDNLVKEKEALQNNIFKEFTSKIGFTIKEYENHSGELMRQQSKELQQLQKQILTVENKLQFETDRLSTTQRRYEKAQKDLENAQVEMKSLEEQEYAIEMKIGSIESKLEEHKNHLDELQKKFVTKQSELNSSEDILEDMNSNLQVLKRERDGIKEDIEKFDLERVTALKNCKISNINIPISSETTIDDLPISSTDNEAITISNSIDINYKGLPKKYKENNTDSARKELEQKIHEVEEILNELQPNARALERYDEAEGRFEVINNETEQLKAEEKKILNQFLKIKKKRKELFEKTFDYVSDHLDAIYRELTKNPNSNVELAGGNASLTIEDEDEPFNAGIKYHATPPLKRFKDMEYLSGGEKTVAALALLFAINSYQPSPFFVLDEVDAALDITNVQRIAAYIRRHRNPDLQFIVISLKNTMFEKSDALVGVYRQQQENSSKIITLDLSNYAE
